Source: PubChem BioAssay AID334 (DTP/NCI, 2004)
The list is a part of this screen's results and no random one: it gathers tests that were run many times, whatever their T/C, doses with no T/C, and many T/C values between a quarter and a half above the control. Further doses and runs are listed elsewhere. T/C: endpoint of the treated group in % of that of the vehicle group. Some entries give survivors of the animals treated and no T/C: the source holds a T/C of zero for them, seemingly a mark for toxic or unscored doses. Some doses without a T/C left all or most animals alive at the check, yet need not have been tolerated: survival well below the control is almost never listed, so the zero probably covers shortened survival too. Survivors were counted at the toxicity check, usually on the fifth day, unless a day is given; later deaths do not show. Schedules are NCI's codes, read here as Q, the interval in days (D) or hours (H), X, the number of doses. Some doses were run more than once; the results are listed from low to high. Where survival is the endpoint, the PubChem record calls one and a half times the control and up active, and a quarter to a half above the control has no call in these data; cut-offs in other NCI protocols can differ. Some T/C values carry the count of animals alive at the toxicity check (mostly the fifth day); without a count, all were alive then. Counts like (3×) count equal records among those shown.

System: CD2F1 mice, intracerebral P388 leukemia, median survival T/C%
Test: NCI In Vivo Anticancer Drug Screen. Data for tumor model P388 Leukemia (intracerebral) in CD2F1 (CDF1) mice
Settings: T/C endpoint: median survival time, higher T/C = longer survival
Method: The antitumor activity of compounds was measured in mice bearing transplantable tumors. Survival or tumor size were measured and the results are expressed as the measurement made in the treated group (T) divided by the measurement made in the vehicle treated control group (C). The tumor model used in this assay is P388 Leukemia (intracerebral) in CD2F1 (CDF1) mice

[1] = dose: 200.0 mg/kg/injection, schedule: Q01DX009 (ip), vehicle: saline
[2] = dose: 400.0 mg/kg/injection, schedule: Q01DX009 (ip), vehicle: saline
[3] = dose: 4.0 mg/kg/injection, schedule: Q03HX008 (ip), vehicle: saline
[4] = dose: 200.0 mg/kg/injection, schedule: Q01DX009 (ip), vehicle: saline with Tween-80
[5] = dose: 2.0 mg/kg/injection, schedule: Q01DX009 (ip), vehicle: saline
[6] = dose: 40.0 mg/kg/injection, schedule: Q01DX009 (ip), vehicle: saline
[7] = dose: 400.0 mg/kg/injection, schedule: Q01DX005 (ip), vehicle: Klucel (hydroxypropylcellulose) (HPC)
[8] = dose: 200.0 mg/kg/injection, schedule: Q01DX009 (ip), vehicle: Klucel (hydroxypropylcellulose) (HPC)

## CC1(C)N=C(N)N=C(N)N1c1ccc(CCC(=O)Nc2ccc(S(=O)(=O)F)cc2)cc1
[1]
  survivor count: 5 of 6
[2]
  survivor count: 5 of 6

## O=P1(N(CCCl)CCCl)NCCCO1 (centres undefined)
dose: 175.0 mg/kg/injection, schedule: Q01DX001 (ip), vehicle: saline
  T/C: 148 % of control

## Nc1ncnc2c1ncn2C1OC(COP(=O)(O)O)C(O)C1O (centres undefined)
dose: 100.0 mg/kg/injection, schedule: Q01DX009 (ip), vehicle: saline
  T/C: 95, 104, 104 [5 of 6 alive], 110, 111 % of control
[1]
  T/C: 102, 104, 106, 107, 108 % of control
[2]
  T/C: 97, 101, 101 [5 of 6 alive], 106, 112 % of control
dose: 800.0 mg/kg/injection, schedule: Q01DX009 (ip), vehicle: saline
  T/C: 90, 93, 106 (2×), 109 % of control

## CC1(C)N=C(N)N=C(N)N1c1ccc(OCC(=O)N2CCOCC2)c(Cl)c1
[1]
  survivor count: 2 of 6

## N[C@@H](Cc1ccc(N(CCCl)CCCl)cc1)C(=O)O
dose: 1.0 mg/kg/injection, schedule: Q03HX008 (ip), vehicle: saline, evaluated on day 30
  T/C: 115 and 115 % of control [9 of 10 alive]
dose: 1.0 mg/kg/injection, schedule: Q03HX008 (ip), vehicle: saline, evaluated on day 50
  T/C: 100 and 127 % of control
dose: 2.0 mg/kg/injection, schedule: Q03HX008 (ip), vehicle: saline, evaluated on day 30
  T/C: 126 [9 of 10 alive] and 147 % of control
dose: 2.0 mg/kg/injection, schedule: Q03HX008 (ip), vehicle: saline, evaluated on day 50
  T/C: 140 and 145 % of control
[3]
  T/C: 120 % of control
  survivor count: 10 of 10 and 6 of 6
dose: 8.0 mg/kg/injection, schedule: Q03HX008 (ip), vehicle: saline
  survivor count: 1 of 6, 7 of 10, 9 of 10, 6 of 6
dose: 16.0 mg/kg/injection, schedule: Q03HX008 (ip), vehicle: saline
  survivor count: 0 of 6
dose: 32.0 mg/kg/injection, schedule: Q03HX008 (ip), vehicle: saline
  survivor count: 0 of 6

## Cc1cnc(/C=N\NC(N)=S)c2cccc(N)c12
[4]
  survivor count: 3 of 10

## O=C1C=C(N2CC2)C(=O)C=C1N1CC1
[5]
  survivor count: 3 of 6, 5 of 6, 6 of 6

## CCCCCCCCCCCCCCCCCC(=O)NC(CC(=O)OCCCCCC)c1ccc(N(CCCl)CCCl)cc1 (centres undefined)
dose: 17.2 mg/kg/injection, schedule: Q03HX008 (ip), vehicle: saline
  T/C: 126 % of control
dose: 34.4 mg/kg/injection, schedule: Q03HX008 (ip), vehicle: saline
  T/C: 126 % of control
dose: 34.5 mg/kg/injection, schedule: Q03HX008 (ip), vehicle: saline
  T/C: 142 % of control [9 of 10 alive]
dose: 68.8 mg/kg/injection, schedule: Q03HX008 (ip), vehicle: saline
  T/C: 147 % of control
dose: 138.0 mg/kg/injection, schedule: Q03HX008 (ip), vehicle: saline
  T/C: 136 % of control [9 of 10 alive]

## CN(Cc1cnc2nc(N)nc(N)c2n1)c1c(Cl)cc(C(=O)NC(CCC(=O)O)C(=O)O)cc1Cl (centres undefined)
dose: 64.0 mg/kg/injection, schedule: Q01DX005 (ip), vehicle: saline
  T/C: 128 % of control

## COc1cc(NCc2ccc3nc(N)nc(N)c3c2C)cc(OC)c1OC (tested in a mixture with another compound)
dose: 60.0 mg/kg/injection, schedule: Q01DX009 (ip), vehicle: water
  T/C: 130 % of control
dose: 120.0 mg/kg/injection, schedule: Q01DX009 (ip), vehicle: water
  survivor count: 0 of 6

## c1ccc([C@H]2CN3CCSC3=N2)cc1
[6]
  survivor count: 0 of 6 and 2 of 6
dose: 80.0 mg/kg/injection, schedule: Q01DX005 (ip), vehicle: saline
  survivor count: 0 of 10
dose: 80.0 mg/kg/injection, schedule: Q01DX009 (ip), vehicle: saline
  survivor count: 0 of 6

## CCN(CC)CCCC(C)Nc1c2ccc(Cl)cc2nc2ccc(OC)cc12 (centres undefined)
dose: 128.0 mg/kg/injection, schedule: Q01DX009 (ip), vehicle: suspension in saline
  survivor count: 0 of 10
dose: 256.0 mg/kg/injection, schedule: Q01DX009 (ip), vehicle: suspension in saline
  survivor count: 0 of 10

## O=C1c2c(O)ccc(O)c2C(=O)c2c(NCCNCCO)ccc(NCCNCCO)c21
dose: 4.0 mg/kg/injection, schedule: Q01DX009 (ip), vehicle: saline with Tween-80
  survivor count: 10 of 10
dose: 8.0 mg/kg/injection, schedule: Q01DX009 (ip), vehicle: saline with Tween-80
  survivor count: 10 of 10
dose: 16.0 mg/kg/injection, schedule: Q01DX009 (ip), vehicle: saline with Tween-80
  survivor count: 10 of 10
dose: 32.0 mg/kg/injection, schedule: Q01DX009 (ip), vehicle: saline with Tween-80
  survivor count: 4 of 10
dose: 64.0 mg/kg/injection, schedule: Q01DX009 (ip), vehicle: saline with Tween-80
  survivor count: 0 of 10

## CC(=O)NNC(=O)c1ccccn1
[7]
  survivor count: 0 of 10
dose: 800.0 mg/kg/injection, schedule: Q01DX005 (ip), vehicle: Klucel (hydroxypropylcellulose) (HPC)
  survivor count: 0 of 10

## N[C@H](C(=O)O)[C@@H]1CC(Cl)=NO1
[5]
  T/C: 149 % of control
dose: 16.0 mg/kg/injection, schedule: Q01DX009 (ip), vehicle: saline
  survivor count: 9 of 10
dose: 32.0 mg/kg/injection, schedule: Q01DX009 (ip), vehicle: saline
  survivor count: 10 of 10

## [N-]=[N+]=CC(=O)CCC(N)C(=O)O (centres undefined)
dose: 0.1 mg/kg/injection, schedule: Q01DX009 (ip), vehicle: saline
  T/C: 126 % of control
dose: 0.8 mg/kg/injection, schedule: Q01DX009 (ip), vehicle: saline
  survivor count: 10 of 10

## COc1cc(C[C@H]2c3cc(OC)c(OC)cc3CCN2C)c(Oc2cc3c(cc2OC)-c2c(OC)c(OC)cc4c2[C@H](C3)N(C)CC4)cc1OC
[7]
  survivor count: 0 of 10, 1 of 8, 3 of 10

## CN(CO)c1nc(N(C)CO)nc(N(C)CO)n1
dose: 50.0 mg/kg/injection, schedule: Q01DX009 (ip), vehicle: saline with Tween-80
  survivor count: 4 of 6
dose: 100.0 mg/kg/injection, schedule: Q01DX009 (ip), vehicle: saline with Tween-80
  survivor count: 4 of 6 and 9 of 10
[8]
  survivor count: 4 of 6 and 5 of 6
[4]
  survivor count: 3 of 6 and 6 of 10
dose: 400.0 mg/kg/injection, schedule: Q01DX009 (ip), vehicle: Klucel (hydroxypropylcellulose) (HPC)
  survivor count: 0 of 6
dose: 400.0 mg/kg/injection, schedule: Q01DX009 (ip), vehicle: saline with Tween-80
  survivor count: 0 of 6
dose: 800.0 mg/kg/injection, schedule: Q01DX009 (ip), vehicle: saline with Tween-80
  survivor count: 2 of 6

## COc1cc2c(c3c1c(=O)c1ccccc1n3C)C=CC(C)(C)O2
dose: 128.0 mg/kg/injection, schedule: Q01DX005 (ip), vehicle: Klucel (hydroxypropylcellulose) (HPC)
  T/C: 130 % of control
dose: 256.0 mg/kg/injection, schedule: Q01DX005 (ip), vehicle: Klucel (hydroxypropylcellulose) (HPC)
  survivor count: 2 of 10
dose: 512.0 mg/kg/injection, schedule: Q01DX005 (ip), vehicle: Klucel (hydroxypropylcellulose) (HPC)
  survivor count: 0 of 10
dose: 1024.0 mg/kg/injection, schedule: Q01DX005 (ip), vehicle: Klucel (hydroxypropylcellulose) (HPC)
  survivor count: 0 of 10 and 3 of 10

## CN1CC[C@]23c4c5ccc(O)c4O[C@H]2C(=O)CC[C@H]3[C@H]1C5
dose: 25.0 mg/kg/injection, schedule: Q01DX005 (iv), vehicle: saline
  survivor count: 1 of 6
dose: 50.0 mg/kg/injection, schedule: Q01DX005 (iv), vehicle: saline
  survivor count: 0 of 6

## CC1(C)N=C(N)N=C(N)N1c1ccc(CCCCc2ccc(Cl)c(S(=O)(=O)F)c2)c(Cl)c1
[6]
  survivor count: 4 of 6

## CCN(C)N=Nc1ccc(C(N)=O)cc1
dose: 50.0 mg/kg/injection, schedule: Q01DX009 (ip), vehicle: Klucel (hydroxypropylcellulose) (HPC)
  T/C: 125 % of control
[8]
  survivor count: 6 of 6

## CN(C)c1nc(N(C)C)nc(N(C)C)n1
dose: 800.0 mg/kg/injection, schedule: Q01DX005 (ip), vehicle: saline with Tween-80
  survivor count: 0 of 10
dose: 800.0 mg/kg/injection, schedule: Q01DX005 (ip), vehicle: suspension in saline
  survivor count: 0 of 10

## O=[N+]([O-])O.[Ga]
dose: 256.0 mg/kg/injection, schedule: Q01DX005 (ip), vehicle: saline
  survivor count: 0 of 10
